# Measured values: PubChem BioAssay AID504834 (National Center for Advancing Translational Sciences (NCATS), 2011)
# Among all 320,000 compounds or so, about 22,000 (6.9%) were called active. Inconclusive results, whose numbers are uncertain, are shown with a selection of clear calls. Calls follow the shape of the dose curve; as a rule, active = well fitted inhibition curve with a large enough effect; inconclusive = small, poorly fitted or top-dose-only effect, or another doubt; inactive = no such curve, though single readings can be large or run the other way. A potency beside an inconclusive call is a rough fit, not a confirmed value.
# Assay: Primary qHTS for delayed death inhibitors of the malarial parasite plastid, 96 hour incubation
# Details: P. falciparum luciferase reporter growth; series mostly up to 28.7 µM; activity change, negative = inhibition: at the top concentration
# How it was run: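 Readout is luminescence from an integrated firefly luciferase in P. falciparum. Red cells, 2% hematocrit and 0.05% parasitemia final, were cultured with compound through two parasite generations (96 hours) at 37 C, 5% CO2.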
# % is scaled to controls: 0 for no effect and ±100 for the full control effect; potency is read from the fitted curve at half-maximal effect.
Compound,Potency,"activity change, negative = inhibition"
Cc1ccc(NC(=O)CSC(N)=O)cc1Cl,"inconclusive: 18.5 µM [inhibitor, single point]",–
Clc1cccc(C2NCc3ccccc3-n3cccc32)c1 (centres undefined),–,inactive: 9.73%
C=CCN(C(=O)c1csnn1)C(C(=O)NCc1ccc(F)cc1)c1ccccc1F (centres undefined),"inconclusive: 11.7 µM [inhibitor, single point]",–
CN(C)S(=O)(=O)c1ccc(S(=O)(=O)N(CC(=O)Nc2ccccc2)CC2CCCO2)cc1 (centres undefined),active: 11.7 µM,–
Cn1cc(C(=O)N2CCN(c3ccccc3)CC2)c(=O)c2cc(S(=O)(=O)N3CCCC3)ccc21,"inconclusive: 13.1 µM [inhibitor, single point]",–
Cc1nc(NC(=O)c2ccccc2)sc1C1(C)CC(c2c(Cl)cccc2Cl)=NO1 (centres undefined),"inconclusive: 13.1 µM [inhibitor, single point]",–
O=C(COc1cccc(Cl)c1)Nc1ccccc1N1CCCCC1,"inconclusive: 18.5 µM [inhibitor, single point]",–
CCCNC(=O)c1ccc(N2CCC3(CC2)CC(c2cccc(Br)c2)=NO3)c(NC(=O)c2cccc(OC)c2)c1,active: 8.28 µM,–
O=C(c1cccc2ccccc12)C1CCCN(C(=O)CCc2cnccn2)C1 (centres undefined),"inconclusive: 18.5 µM [inhibitor, single point]",–
CCOCCn1c(=O)c2c(nc3n2CC(C)CN3CCc2ccccc2)n(C)c1=O (centres undefined),"inconclusive: 5.22 µM [inhibitor, partial curve]",–
COc1ccc(-c2cc(C(=O)N3CCN(c4ccccc4O)CC3)c3ccccc3n2)cc1OC,active: 2.62 µM,–
Cc1ccc(C2(c3ccccc3)NC(=O)N(CC(=O)NCc3ccco3)C2=O)cc1C (centres undefined),active: 5.86 µM,–
Cn1c(CC(=O)Nc2ccccc2)nnc1SCCOc1ccccc1,"inconclusive: 18.5 µM [inhibitor, single point]",–
Cc1ccc(C)c2[nH]c(=O)c(CN(CCN3CCOCC3)Cc3nnnn3CC3CCCO3)cc12 (centres undefined),–,inactive: 76.9%
COc1cccc(CNC(=O)CCC2CCCN(C(=O)c3cccc4c(C)c(C)[nH]c34)C2)c1 (centres undefined),–,inactive: -35.5% [at 1.15 µM]
Cc1noc(C)c1S(=O)(=O)N1CCN(c2ccc([N+](=O)[O-])cc2)CC1,"inconclusive: 0.586 µM [inhibitor, full curve, poor fit]",–
C=CCNC(=O)CSc1nc2sc3c(c2c(=O)n1CCC)CCC3,"inconclusive: 11.7 µM [inhibitor, partial curve]",–
O=C(Cn1c(=O)oc2ccccc21)NCCc1ccccc1Cl,–,inactive: 13.1%
CC(C)CCOP(=O)(c1ccc(N(C)C)cc1)C(O)c1ccc(N(C)C)cc1 (centres undefined),"inconclusive: 13.1 µM [inhibitor, single point]",–
CCOP(=O)(OCC)c1nc(-c2cccc3ccccc23)oc1N1CCOCC1,"inconclusive: 16.5 µM [inhibitor, single point]",–
Cc1onc(-c2ccccc2)c1-c1nnc(CN2CCN(S(=O)(=O)c3ccccc3F)CC2)o1,"inconclusive: 9.28 µM [inhibitor, partial curve, poor fit]",–
COc1ccccc1CNC(=O)C(=O)NCCC1CCCCN1S(=O)(=O)c1ccc(C)cc1 (centres undefined),"inconclusive: 10.4 µM [inhibitor, single point]",–

# Single records, from the list above. Values in the order: Potency | activity change, negative = inhibition
# Cc1onc(-c2ccccc2)c1-c1nnc(CN2CCN(S(=O)(=O)c3ccccc3F)CC2)o1 as listed: inconclusive: 9.28 µM [inhibitor, partial curve, poor fit] | –
# C=CCNC(=O)CSc1nc2sc3c(c2c(=O)n1CCC)CCC3 as listed: inconclusive: 11.7 µM [inhibitor, partial curve] | –
# CCCNC(=O)c1ccc(N2CCC3(CC2)CC(c2cccc(Br)c2)=NO3)c(NC(=O)c2cccc(OC)c2)c1 as listed: active: 8.28 µM | –

# (cont.)

Compound,Potency,"activity change, negative = inhibition"
O=C(COc1ccc([N+](=O)[O-])cc1)NCc1ccncc1,"inconclusive: 0.0928 µM [inhibitor, full curve, poor fit]",–
Cn1nnnc1SCC(=O)Nc1ccc2c(c1)OCO2,"inconclusive: 4.15 µM [inhibitor, single point]",–
COc1ccc(OCC(O)Cn2ccnc2C)cc1 (centres undefined),"inconclusive: 11.7 µM [inhibitor, single point]",–
Cc1cnc(CN2CCc3c([nH]c4ccccc34)C2C2CCCCC2)[nH]1 (centres undefined),"inconclusive: 0.415 µM [inhibitor, partial curve, poor fit]",–
CCCCn1nc(C(=O)NNC(=O)c2ccncc2)c2ccccc2c1=O,"inconclusive: 20.8 µM [inhibitor, single point]",–
Cc1ccc(OCC(O)CN2CCOCC2)c(C)c1 (centres undefined),"inconclusive: 18.5 µM [inhibitor, single point]",–
C=CCC(NCc1ccco1)c1ccc(OC)cc1OC (centres undefined),active: 10.4 µM,–
CN(C)c1ccc(CNc2ncnc3sccc23)cc1,–,inactive: 30.7%
COC(=O)c1sc(NC(=O)c2c(-c3ccccc3)noc2C)nc1C,"inconclusive: 18.5 µM [inhibitor, single point]",–
C/C(=N/NC(=O)c1ccc2c(c1)OCO2)c1cccc(NC(=O)C(C)(C)C)c1,–,inactive: -5.5% [at 5.75 µM]
Cc1ccccc1CN1CCN(C(=O)CC(C)C)CC1,active: 10.4 µM,–
O=C(NC1CCN(C(=O)Nc2ccccc2Cl)CC1)c1ccccc1,"inconclusive: 18.5 µM [inhibitor, single point]",–
O=C(NN/C(=N/S(=O)(=O)c1ccc(Cl)cc1)c1ccccc1)c1ccc(O)cc1,–,inactive: 146%
CC(=O)c1ccc(N2CCN(S(=O)(=O)c3c(C)[nH]c(C)c3C(=O)N3CCCCC3)CC2)cc1,–,inactive: 14.1%
COc1nccc(C(F)(F)F)c1C(=O)NC(=O)Nc1ccccc1,"inconclusive: 20.8 µM [inhibitor, single point]",–
O=C(COC(=O)c1cccs1)NCc1ccc2c(c1)OCO2,–,inactive: -12.3%
COc1ccccc1-n1c(-c2ccccc2)c[nH]c1=S,"inconclusive: 1.04 µM [inhibitor, partial curve, poor fit]",–
COc1ccc(C(=O)CSc2nnc(-c3ccco3)c(-c3ccco3)n2)cc1,active: 1.47 µM,–
O=C(NC1CCC(O)CC1)c1cc(-c2ccco2)nc2ccccc12 (centres undefined),–,inactive: 46%
COc1ccc(NC(C)=O)cc1NC(=O)CSc1nnc(C2CCCCC2)n1N,"inconclusive: 18.5 µM [inhibitor, single point]",–
Cc1ccsc1/C=C1\SC(N2CC(C)OC(C)C2)=NC1=O (centres undefined),"inconclusive: 2.08 µM [inhibitor, full curve, poor fit]",–
COC(=O)c1sccc1NC(=O)c1cnc2cc(C)nn2c1C,"inconclusive: 18.5 µM [inhibitor, single point]",–
